Test [1] deals with cynomolgus CD93 protein (made in-house) (cynomolgus). Nature of the test: summary table, Cyno Cross (ELISA). In general terms: In an ELISA, binding on a coated surface is turned into a signal by an enzyme label.
Test [2] shares this target. The test can be described thus: BLI (Octet), biotinylated CD93 on streptavidin sensors. (BLI is a label-free optical method that tracks binding on a fibre tip over time.)
For test [3], the target named is His-tagged human CD93 (human) (UniProt Q9NPY3). The test can be described thus: ELISA, His-tagged human CD93 coated at 1 µg/mL.
The target in test [4] is cynomolgus CD93 protein (made in-house) (cynomolgus). Nature of the test: BLI (Octet), biotinylated cynomolgus CD93 on streptavidin sensors.
Test [5] addresses His-tagged human CD93 (human) (UniProt Q9NPY3). Nature of the test: ELISA, His-tagged human CD93 coated at 1 µg/mL, anti-human Fc-HRP.
The target is the same in test [6]. The test can be described thus: ELISA, His-tagged human CD93 coated at 1 µg/mL, anti-mouse Fc-HRP.
Test [7] concerns the target Human CD93 on the cell surface (human CD93 expressing CHO cells; HUVEC, U937 and KG1a cells) (human) (UniProt Q9NPY3). Nature of the test: FACS on human CD93 expressing CHO cells; antibody fresh or stored at 40 C for 2 or 4 weeks.
Test [8] has the same target. The test can be described thus: FACS on KG1a cells; antibody fresh or stored at 40 C for 2 or 4 weeks.
For test [9], the target named is Human CD93 recombinant protein (Sino Biological Inc, Catalog #12589-H08H) (human) (UniProt Q9NPY3). The test can be described thus: BLI (Octet), biotinylated human CD93 on streptavidin sensors.
In test [10] the target is Human CD93 on the cell surface (human CD93 expressing CHO cells; HUVEC, U937 and KG1a cells) (human) (UniProt Q9NPY3). Nature of the test: FACS on HUVEC cells; antibody fresh or stored at 40 C for 2 or 4 weeks.

Amino acid sequences for entries named in this document (tags omitted). A change or cut given only in a name is not applied to a line headed by its entry. Residues count along the entry.
UniProt Q9NPY3: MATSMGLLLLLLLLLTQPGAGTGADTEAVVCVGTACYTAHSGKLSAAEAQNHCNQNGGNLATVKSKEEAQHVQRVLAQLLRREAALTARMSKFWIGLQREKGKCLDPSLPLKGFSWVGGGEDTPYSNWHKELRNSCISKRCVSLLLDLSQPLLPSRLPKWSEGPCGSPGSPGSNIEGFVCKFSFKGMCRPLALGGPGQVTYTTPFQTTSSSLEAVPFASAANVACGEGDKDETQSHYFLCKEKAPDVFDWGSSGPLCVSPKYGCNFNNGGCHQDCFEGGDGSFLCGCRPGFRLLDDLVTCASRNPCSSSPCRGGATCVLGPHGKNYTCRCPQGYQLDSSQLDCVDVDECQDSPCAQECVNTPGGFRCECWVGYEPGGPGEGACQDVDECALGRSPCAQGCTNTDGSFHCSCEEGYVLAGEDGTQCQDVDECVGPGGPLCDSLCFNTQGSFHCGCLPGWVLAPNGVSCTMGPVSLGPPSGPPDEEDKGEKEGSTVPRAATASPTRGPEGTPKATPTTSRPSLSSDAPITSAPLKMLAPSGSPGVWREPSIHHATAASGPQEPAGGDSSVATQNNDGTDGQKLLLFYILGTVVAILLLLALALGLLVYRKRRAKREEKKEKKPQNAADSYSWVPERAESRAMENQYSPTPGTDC
Human CD93 on the cell surface (human CD93 expressing CHO cells; HUVEC, U937 and KG1a cells): residues 22-652 of Q9NPY3
Human CD93 recombinant protein (Sino Biological Inc, Catalog #12589-H08H): residues 22-580 of Q9NPY3

No constants are given. Whether binding was seen depends on the method and setting. Some entries that bind do so weakly or less than the wild type. For some of these results: Sequences can lack the tags named with a protein.

B1: 10B1 (mouse anti-human CD93 hybridoma antibody) (antibody, V domains shown)
VH: QVQLKQSGPGLVQPSQSLSITCTVSDFSLSSFGVNWVRQPPGKGLEWLGVIWSGGSTDYNVAFISRLSISKDNSKSQVFFKMNNLQADDTAIYYCARNWRYDGYFYAMDYWGQGTSVTVSS
VL: DIVMTQSQKFMSTSTGDRVSVTCKASQNVGTNVAWYQQKPGQSPKALIYSASYRFIGVPDRFTGSGSGTDFTLTITNVQSEDLAEYFCQQYNRNPITFGSGTKLEIK
Take B1: the binding entry in [1] and in test [2] was “binds” each time.

B2: 17B10 (mouse anti-human CD93 hybridoma antibody) (antibody, V domains shown)
VH: QVQLQQSGPELVKPGASVKISCKASGYAFSSYWLNWVKQRPGKGLEWFGRIYPGDGDTDYNGKFKGKATLTADKSSSTAYMQLRSLTSEDSAVYFCVRGDGYWAMDYWGQGTSVTVSS
VL: DIVMTQAAFSNPVTLGTSASISCRFSKSLLHSNGITYLYWYLQKPGQSPQLLIYQMSNLASGVPDRFSSSGSGTDFTLRISRVEAEDVGVYYCAQNLELPWTFGGGTKLEIK
B2: the binding entry in test [3], in [4] and in [1] was “binds” each time.

B3: recombinant parental 17B10-hFc (17B10-hIgG1) (antibody, V domains shown)
VH: QVQLQQSGPELVKPGASVKISCKASGYAFSSYWLNWVKQRPGKGLEWFGRIYPGDGDTDYNGKFKGKATLTADKSSSTAYMQLRSLTSEDSAVYFCVRGDGYWAMDYWGQGTSVTVSS
VL: DIVMTQAAFSNPVTLGTSASISCRFSKSLLHSNGITYLYWYLQKPGQSPQLLIYQMSNLASGVPDRFSSSGSGTDFTLRISRVEAEDVGVYYCAQNLELPWTFGGGTKLEIK
On to B3, for which, in test [3], the binding result was “binds”.

B4: 17E6 (mouse anti-human CD93 hybridoma antibody) (antibody, V domains shown)
VH: EVQLQQSGPELVKPGASVKMSCKASGYTFTSYVIHWVKQKPGQGLEWIGYINPYSDYTQYNEKFKGKATLTSDKSSSTAYMELSSLTSEDSAVYSCARRADGNPYAMDYWGQGTSVTVSS
VL: DIVMTQSHKFMSTSVGDRVSTTCKASQDVSTAVVWYQQKPGQSPKLLIYSASYRYTGVPDRFTGSGSGTDFTFTITSVQAEDLAVYYCQQHYSTPFTFGSGTKLEIK
With B4, the binding result in test [4] and in [1] was “binds” throughout.

B5: 20C7 (mouse anti-human CD93 hybridoma antibody) (antibody, V domains shown)
VH: EVQLQQSGPELVNPGASVKMSCKASGYTFTAYVMHWVKQKPGQGLEWIGYIFPYNDGTEYNEKFKGKATLTSDKSSSTAYMELSSLTSEDSAVYYCARRTDGNPYTMDYWGQGTSVTVSS
VL: DIVMTQSHKFMSTSVGDRVSITCKASQDVSTAVAWYQQKPGQSPKLLIHSASYRYTGVPDRFTGRGSGTDFTFTISSVQAEDLAVYYCQQHYSTPFTFGSGTKLEIK
Consider B5, for which the binding entry in test [4] and in test [1] was “binds” each time.

B6: 5H9 (mouse anti-human CD93 hybridoma antibody) (antibody, IgG2a, V domains shown)
VH: QVQLQQSGPDLVKPGASVKISCKASGYAFSTYWMNWVKQRPGKGLEWIGRIFPGDGDANYNGKFKGKATLTADKSSSTAYMQLSSLTSEDSAVYFCTRTGAAYDFDPFPYWGQGTLVTVSA
VL: DIVMTQAAFSNPVTLGTSASISCSSSKSLLHSNGVTYLYWYLQRPGQSPQLLIYRMSNLASGVPDRFSGSGSGTDFTLRISRVEAEDVGIYYCAQMLERPFTFGSGTKLEIK
For B6, the binding entry in test [4] and in test [1] was “binds” each time.

B7: 17A7 (mouse anti-human CD93 hybridoma antibody) (antibody, V domains shown)
VH: QVQLQQSGPELVKPGASVKISCKGSGYAFSTYWMNWVKQRPGKGLEWIGRIFPGDGDTDYDGKFKGKATLTADKSSNTAYMQLSSLTSEDSAVYFCARTGAAYEFDPFPYWGQGTLVTVSA
VL: DIVMTQAAFSNPVTLGTSASISCSSTKSLLHSSGITYLYWYLQRPGQSPQLLIYRMSNLASGVPDRFSGSGSGTDFTLRISRVEAEDVGVYYCAQMLERPFTFGSGTKLEIK
In the case of B7, the binding entry in [4] and in test [1] was “binds” throughout.

B8: 7F3-hIgG1 (recombinant chimeric 7F3) (antibody, V domains shown)
VH: QVQLQQSGADLVRPGASVKLSCKASGYTFTDYEMHWVKQTPVYGLEWIGGIDPETGDTAYNQNFKGKATLTADKSSSAAYMELRSLTSEDSAVYYCTNYGNLYYYAMDYWGQGTSVTVSS
VL: ENVLTQSPAIMSASPGEKVTMTCRASSSVSSSYLHWYQQKSGASPKLWIYSTSNLAFGVPARFSGSGSGTSYSLTISSVEAEDAATYYCQQYSGYPLTFGSGTKLEIK
Consider B8, for which the binding result in test [5] is recorded as “binds”.

B9: 7F3 (mouse anti-human CD93 hybridoma antibody) (antibody, IgG1, V domains shown)
VH: QVQLQQSGADLVRPGASVKLSCKASGYTFTDYEMHWVKQTPVYGLEWIGGIDPETGDTAYNQNFKGKATLTADKSSSAAYMELRSLTSEDSAVYYCTNYGNLYYYAMDYWGQGTSVTVSS
VL: ENVLTQSPAIMSASPGEKVTMTCRASSSVSSSYLHWYQQKSGASPKLWIYSTSNLAFGVPARFSGSGSGTSYSLTISSVEAEDAATYYCQQYSGYPLTFGSGTKLEIK
Regarding B9, the binding entry in test [6], in test [1] and in test [2] was “binds” in each case.

B10: h16E4 (humanized 16E4, VH4+VL6) (antibody, V domains shown)
VH: QVQLVQSGAEVKKPGASVKVSCKASGYTFTSYWMHWVRQAPGQGLEWMGEIDPSASYTYYNQKFKGRVTMTRDKSSSTVYMELSSLTSEDSAVYYCARSVYYGNKYFDVWGAGTTVTVSS
VL: DIQMTQSPSTLSASVGDRVTITCKASQSVDYAGDSYMNWYQQKPGKAPKLLIYAASNLESGVPSRFSGSGSGTEFTLTISSLQPDDFATYYCQQTNEDPRTFGGGTKLEIK
Consider B10, for which the binding result in test [7], in test [8] and in test [9] was “binds” in each case.

B11: 16B6 (mouse anti-human CD93 hybridoma antibody) (antibody, V domains shown)
VH: QVQLQQSGPELVKPGASVKISCKASGYAFSRSWMNWVKQRPGKGLEWIGWIYPGDGDTNYNGKFKGKATLTADKSSSTAYMQLSSLTSEDSAAYFCARSATLPYWYFDVWGAGTTVTVSS
VL: DIKMTQSPSSMYASLGERVTITCKASQDIKSYLSWYQQKPWKSPKTLIYYATNLADGVPSRFSGSGSGQDYSLTISSLGSDDTATYYCLQHVESPWTFGGGTKLEIK
For B11, the binding entry in test [4] and in test [1] was “binds” in each case.

B12: 19B5 (mouse anti-human CD93 hybridoma antibody) (antibody, V domains shown)
VH: DVNLVESGGGLVKLGGSLKLSCAASGFTFSNYYMSWVRQSPEKRLEWVATISNNGDSTYYLDTVKGRFTISRDSAENTLYLQMSSLISEDTAVYYCTRVGTGFTYWGQGTLVTVSA
VL: DIVLTQSPATLSVTPGDSVSLSCRASQSINNYLHWYQQRSHESPRLLIKFASQSISDIPSRFSGSGSGTDFTLSINSIETEDFGMYFCQQSNSWPLTFGAGTKLELK
B12: the binding entry in [4] and in test [1] was “binds” in each case.

B13: 12H4 (mouse anti-human CD93 hybridoma antibody) (antibody, V domains shown)
VH: EVQLQQSGPELVKPGASVKVSCKASGYTFTDYYIHWVKQRPGQGLEWIGEIYPGSDDAYYNEKFKGKATLTADKSSSTAYMQLSSLTSEDSAVYFCTRETTATAYWGQGTLVTVSA
VL: QIVLTQSPAIMSASPGEKVTITCSASSSVSLIYWFQQKPGTSPKLWIYSTSNLASGVPARFSGSGSGTSYSLTISRMEAEDAATYYCQQRSGYPPTFGGGTKLEIK
Turning to B13, the binding entry in test [4] and in [1] was “binds” in each case.

B14: 16G9 (mouse anti-human CD93 hybridoma antibody) (antibody, V domains shown)
VH: EVQLQQSGPELVKPGASVKMSCKASGYTFTDYYMNWVKQSHGKSLEWIGRVNPNNGGKTYNQKFKGKATLTVDKSLSTAYMQLNSLTSEDSAVYYCARWRLRPVDYGMDYWGQGTSVTVSS
VL: DIVLTQSPASLAVSLGQRATISCRASQSVSTSSYSYMHWYQQKPGQPPKLLIKYASNLESGVPARFSGSGSGTDFTLNIHPVEEEDTATYYCQHSWEIPFTFGSGTKLEIK
For the molecule B14, the binding result in test [4] and in [1] was “binds” in each case.

B15: Humanized 17B10 (VH3VL3, i.e., H3L3), chimeric Fc with mouse IgG1 CH2 and CH3 domains and human CH1 (antibody, V domains shown)
VH: QVQLVQSGPEVKKPGESLKISCKASGYAFSSYWLNWVRQMPGKGLEWMGRIYPGDGDTDYNGKFKGQVTISADKSSGTAYLQLSSLKASDTAVYFCVRGDGYWAMDYWGQGTLVTVSS
VL: DIVMTQSPDSLAVSLGERATINCRFSKSLLHSNGITYLYWYQQKPGQPPKLLIYQMSNLASGVPDRFSGSGSGTDFTLTISSLQAEDVAVYYCAQNLELPWTFGGGTKLEIK
With B15, the binding result in test [3] and in test [6] was “binds” throughout.

B16: 19E12 (mouse anti-human CD93 hybridoma antibody) (antibody, V domains shown)
VH: QVQLQQSGAELVRPGASVKLSCKASGYTFTDYEMHWVRQTPVHGLEWIGGIDPETGGTAYNQKFKGKATLTADKSSSTAYMELRSLTSEDSAVYYCTRGAWFAYWGQGTLVTVSA
VL: QAVVTQESALTTSPGETVTLTCRSSTGAVTTSNSANWVQEKPDHLFTGLIGGTNNRAPGVPARFSGSLIGDKAALTITGAQTEDEAIYFCALWYNNHFVFGGGTKLTVL
Regarding B16, the binding result in test [4] and in test [1] was “binds” each time.

B17: h7F3 (humanized 7F3, VH3+VL3) (antibody, V domains shown)
VH: QVQLVQSGAEVKKPGASVKVSCKASGYTFTDYEMHWVRQAPGQGLEWMGGIDPETGDTAYNQNFKGRVTMTTDTSTSTAYMELRSLTSDDTAVYYCTNYGNLYYYAMDYWGQGTSVTVSS
VL: EIVLTQSPSSLSASVGDRVTITCRASSSVSSSYLHWYQQKPGKAPKLLIYSTSNLAFGVPSRFSGSGSGTSYTFTISSLQPEDIATYYCQQYSGYPLTFGSGTKLEIK
As for B17, the binding result in test [10], in [7], in test [8] and in test [9] was “binds” in each case.

Source of the values: patent US20230322935A1 (published 2023).
